{
  "sequences": {"note": "Sequences of proteins named here, by UniProt entry; tags and fusion partners are left off. Residues count along the entry.", "UniProt O14763, residues 56-211": "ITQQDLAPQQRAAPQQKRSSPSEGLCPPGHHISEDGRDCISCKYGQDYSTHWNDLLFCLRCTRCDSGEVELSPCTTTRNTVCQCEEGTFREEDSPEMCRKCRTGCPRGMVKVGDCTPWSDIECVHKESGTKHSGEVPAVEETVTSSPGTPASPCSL"},
  "source": "paper PMC6801735",
  "key": {"[1]": {"target": "death receptor 5 (DR5) ectodomain (human) (UniProt O14763)", "test": "SEC; SEC of recombinant DR5 after IMAC; oligomers seen before the buffer was changed to acetate pH 5.0; both purified"}, "[2]": {"target": "death receptor 5 (DR5) ectodomain (human) (UniProt O14763)", "test": "SDS-PAGE under non-reducing and reducing conditions, with western blot; purified DR5 ectodomain (5 ug per lane) run with or without dithiotreitol; band around 40,000 only under non-reducing conditions; both purified"}},
  "note": "These are yes or no findings as the source states them, for the method shown. Some entries that bind do so weakly or less than the wild type.",
  "data": [
    {"substance": "death receptor 5 (DR5) ectodomain (from UniProt O14763 56-211) (domain or fragment)", "values": [
      {"measurement": "binding", "setting": "[1]", "value": "binds"},
      {"measurement": "binding", "setting": "[2]", "value": "binds"}
    ]}
  ]
}
